Data taken from PMC4666396.
Results are given in words; binding and its absence hold for the method and conditions named. Binding can be weak; no strength is given. Tags and fused reporters may be left off the sequences shown.

The chains behind the UniProt entries cited, without tags or fusion partners. Where a name states a change or a piece, a line headed by the entry shows the natural chain unless it says otherwise.
UniProt Q15637: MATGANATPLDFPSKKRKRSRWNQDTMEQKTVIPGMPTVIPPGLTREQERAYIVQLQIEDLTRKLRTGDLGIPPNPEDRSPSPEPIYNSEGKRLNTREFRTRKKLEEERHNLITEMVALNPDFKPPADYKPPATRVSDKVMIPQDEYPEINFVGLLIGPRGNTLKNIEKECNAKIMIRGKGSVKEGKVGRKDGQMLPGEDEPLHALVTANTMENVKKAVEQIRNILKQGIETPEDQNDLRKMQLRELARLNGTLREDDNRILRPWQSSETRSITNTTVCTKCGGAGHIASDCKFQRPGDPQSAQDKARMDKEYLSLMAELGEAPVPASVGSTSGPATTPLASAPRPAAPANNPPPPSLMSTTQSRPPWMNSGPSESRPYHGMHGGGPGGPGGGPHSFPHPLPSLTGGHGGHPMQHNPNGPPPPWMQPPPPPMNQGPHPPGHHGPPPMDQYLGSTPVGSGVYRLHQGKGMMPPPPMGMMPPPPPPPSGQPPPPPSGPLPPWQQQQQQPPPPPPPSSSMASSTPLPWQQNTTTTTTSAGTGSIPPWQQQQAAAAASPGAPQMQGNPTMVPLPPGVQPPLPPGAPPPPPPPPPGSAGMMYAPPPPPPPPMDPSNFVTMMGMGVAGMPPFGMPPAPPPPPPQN

What was measured:
GST-CHERP-SURP = target: T1, GST-CHERP-SURP (UniProt Q8IWX8); assay: pull-down; GST fusion proteins on glutathione-agarose; His6- or His6-MBP-tagged SF1 proteins in two-fold molar excess; NETN (20 mM Tris-HCl pH 8.0, 50 mM NaCl, 0.5% NP-40, 0.5 mM EDTA), 45 min 4°C; with or without RNase A; western blot with anti-His6; both purified
T1 sequence: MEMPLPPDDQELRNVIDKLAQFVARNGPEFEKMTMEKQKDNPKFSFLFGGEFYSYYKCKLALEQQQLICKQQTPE

GST-SF3a120-SURP1 = target: T2, GST-SF3a120-SURP1 (UniProt Q15459); assay: as above
T2 sequence: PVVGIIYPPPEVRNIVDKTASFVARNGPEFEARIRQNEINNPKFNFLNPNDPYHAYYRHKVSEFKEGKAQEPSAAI

| binding (GST-CHERP-SURP) | binding (GST-SF3a120-SURP1) | Substance |
| --- | --- | --- |
| binds | binds | His6-MBP-SF1-C370 ΔKH (from UniProt Q15637) (domain or fragment) |
| binds | binds | His6-MBP-SF1-C370 ΔZn (from UniProt Q15637) (domain or fragment) |
